# Data taken from patent US20120046308A1, “NOVEL ALPHA-PHENOXYBENZENEACETIC ACID DERIVATIVE AND PHARMACEUTICAL PREPARATION COMPRISING SAME” (KOWA COMPANY, LTD., priority 2009, published 2012).
# Some of these results come from one statement about several compounds together.
# Target: T1, human PPARγ2 (Homo sapiens, UniProt P37231)
# T1 construct: the amino acids 182 to 505 of human PPARγ2; expressed in transfected cells; host or cells: COS7 cells (African green monkey kidney)
# T1 sequence (P37231 182-505): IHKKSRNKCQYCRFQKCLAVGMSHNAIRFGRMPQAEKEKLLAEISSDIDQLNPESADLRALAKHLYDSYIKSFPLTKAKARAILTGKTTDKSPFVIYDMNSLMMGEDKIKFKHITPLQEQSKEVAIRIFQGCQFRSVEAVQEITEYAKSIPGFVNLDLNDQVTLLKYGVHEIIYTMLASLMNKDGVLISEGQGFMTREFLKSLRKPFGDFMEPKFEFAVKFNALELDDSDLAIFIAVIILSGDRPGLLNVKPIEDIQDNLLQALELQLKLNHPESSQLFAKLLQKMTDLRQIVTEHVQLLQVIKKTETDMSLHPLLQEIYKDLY
# Assay: PPARγ activation activity, Gal4-PPARγ2 LBD luciferase transfection assay using COS7 cells
# Assay type: cell-based
# Details: maximum activity relative to rosiglitazone
row,SMILES,maximum activity compared with that of termisartan
1,"CCCCc1nc(C)n(-c2ncc(OC)cn2)c(=O)c1Cc1cc(CCC)c(OC(C(=O)O)c2ccc(Cl)cc2)c(CCC)c1 (stereo not drawn) [Example 18, 2-[4-[{4-butyl-1-(5-methoxypyrimidin-2-yl)-2-methyl-6-oxo-1,6-dihydropyrimidin-5-yl}methyl]-2,6-dipropylphenoxy]-2-(4-chlorophenyl)acetic acid]",equal to or more than that of termisartan
2,"CCCCc1nc(C)n(-c2ncc(OCc3ccccc3)cn2)c(=O)c1Cc1cc(CCC)c(OC(C(=O)O)c2ccccc2)c(CCC)c1 (stereo not drawn) [Example 19, 2-[4-[[1-[5-(benzyloxy)pyrimidin-2-yl]-4-butyl-2-methyl-6-oxo-1,6-dihydropyrimidin-5-yl]methyl]-2,6-dipropylphenoxy]-2-phenylacetic acid]",equal to or more than that of termisartan
3,CCCCc1nc(C)n(-c2ncc(OCC)cn2)c(=O)c1Cc1cc(CCC)c(OC(C(=O)O)c2ccccc2)c(CCC)c1 (stereo not drawn) [Example 20],equal to or more than that of termisartan
